The results in this text go back to the supplement of paper PMC12819154, “High-throughput peptide-centric local stability assay extends protein–ligand identification to membrane proteins, tissues and bacteria” (Nature Structural & Molecular Biology, 2025).

The chains behind the UniProt entries cited, without tags or fusion partners. Where a name states a change or a piece, a line headed by the entry shows the natural chain unless it says otherwise.
UniProt Q14CW9: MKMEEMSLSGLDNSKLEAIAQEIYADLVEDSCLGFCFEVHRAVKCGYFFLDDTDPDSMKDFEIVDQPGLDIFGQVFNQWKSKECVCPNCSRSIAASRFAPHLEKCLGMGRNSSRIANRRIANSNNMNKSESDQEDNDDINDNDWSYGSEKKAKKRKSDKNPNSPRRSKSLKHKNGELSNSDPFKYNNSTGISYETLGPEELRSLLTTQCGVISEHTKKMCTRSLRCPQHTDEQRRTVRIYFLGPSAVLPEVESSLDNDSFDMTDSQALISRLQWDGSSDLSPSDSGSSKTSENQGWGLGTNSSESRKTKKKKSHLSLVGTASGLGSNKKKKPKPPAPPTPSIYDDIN
UniProt Q15048: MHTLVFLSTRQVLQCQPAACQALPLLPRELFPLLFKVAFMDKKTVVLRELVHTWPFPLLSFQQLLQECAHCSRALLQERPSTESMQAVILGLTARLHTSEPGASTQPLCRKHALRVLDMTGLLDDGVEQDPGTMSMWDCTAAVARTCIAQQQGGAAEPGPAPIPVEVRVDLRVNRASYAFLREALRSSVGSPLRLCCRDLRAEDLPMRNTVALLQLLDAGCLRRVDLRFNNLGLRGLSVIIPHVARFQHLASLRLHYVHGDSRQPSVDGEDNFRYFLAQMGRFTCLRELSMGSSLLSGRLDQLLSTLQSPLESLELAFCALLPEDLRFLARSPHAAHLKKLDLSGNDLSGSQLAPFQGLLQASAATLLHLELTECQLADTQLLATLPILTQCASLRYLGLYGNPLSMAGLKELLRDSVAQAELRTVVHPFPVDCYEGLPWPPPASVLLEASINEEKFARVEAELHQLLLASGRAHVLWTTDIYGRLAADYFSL
UniProt Q13506: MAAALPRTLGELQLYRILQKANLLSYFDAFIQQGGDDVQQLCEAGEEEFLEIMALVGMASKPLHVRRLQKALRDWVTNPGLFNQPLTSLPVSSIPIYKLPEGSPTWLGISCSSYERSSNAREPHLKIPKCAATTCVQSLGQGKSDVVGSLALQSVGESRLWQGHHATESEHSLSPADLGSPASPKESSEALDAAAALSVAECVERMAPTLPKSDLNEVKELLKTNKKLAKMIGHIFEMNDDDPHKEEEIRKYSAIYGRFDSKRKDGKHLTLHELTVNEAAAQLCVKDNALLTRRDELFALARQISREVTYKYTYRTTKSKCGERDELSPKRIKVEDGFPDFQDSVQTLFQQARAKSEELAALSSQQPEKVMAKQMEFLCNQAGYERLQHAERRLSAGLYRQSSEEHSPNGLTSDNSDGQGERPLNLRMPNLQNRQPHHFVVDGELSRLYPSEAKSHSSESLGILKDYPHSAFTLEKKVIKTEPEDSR
UniProt Q13907: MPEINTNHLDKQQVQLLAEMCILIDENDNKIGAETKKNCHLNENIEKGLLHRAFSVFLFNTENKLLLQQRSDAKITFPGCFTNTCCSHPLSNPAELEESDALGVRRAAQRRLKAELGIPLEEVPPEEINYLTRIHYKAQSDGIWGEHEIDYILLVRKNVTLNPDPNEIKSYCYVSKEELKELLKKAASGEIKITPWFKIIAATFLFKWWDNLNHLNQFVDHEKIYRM
UniProt Q14188: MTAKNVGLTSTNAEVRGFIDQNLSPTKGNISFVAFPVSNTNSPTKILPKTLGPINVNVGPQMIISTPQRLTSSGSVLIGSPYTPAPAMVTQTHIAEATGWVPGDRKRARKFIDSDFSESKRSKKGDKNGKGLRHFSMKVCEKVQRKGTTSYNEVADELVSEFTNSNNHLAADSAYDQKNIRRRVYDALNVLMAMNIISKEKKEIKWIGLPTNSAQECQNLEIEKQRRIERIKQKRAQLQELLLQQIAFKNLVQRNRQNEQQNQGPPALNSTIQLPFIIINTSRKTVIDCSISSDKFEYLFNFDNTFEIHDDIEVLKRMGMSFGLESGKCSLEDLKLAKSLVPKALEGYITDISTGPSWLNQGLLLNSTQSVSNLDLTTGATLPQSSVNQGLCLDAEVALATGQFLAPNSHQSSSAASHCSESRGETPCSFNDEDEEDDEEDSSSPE
UniProt Q13541: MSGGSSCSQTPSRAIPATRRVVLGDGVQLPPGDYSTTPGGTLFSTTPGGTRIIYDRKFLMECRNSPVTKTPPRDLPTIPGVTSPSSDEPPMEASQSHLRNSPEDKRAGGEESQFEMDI
UniProt Q14155: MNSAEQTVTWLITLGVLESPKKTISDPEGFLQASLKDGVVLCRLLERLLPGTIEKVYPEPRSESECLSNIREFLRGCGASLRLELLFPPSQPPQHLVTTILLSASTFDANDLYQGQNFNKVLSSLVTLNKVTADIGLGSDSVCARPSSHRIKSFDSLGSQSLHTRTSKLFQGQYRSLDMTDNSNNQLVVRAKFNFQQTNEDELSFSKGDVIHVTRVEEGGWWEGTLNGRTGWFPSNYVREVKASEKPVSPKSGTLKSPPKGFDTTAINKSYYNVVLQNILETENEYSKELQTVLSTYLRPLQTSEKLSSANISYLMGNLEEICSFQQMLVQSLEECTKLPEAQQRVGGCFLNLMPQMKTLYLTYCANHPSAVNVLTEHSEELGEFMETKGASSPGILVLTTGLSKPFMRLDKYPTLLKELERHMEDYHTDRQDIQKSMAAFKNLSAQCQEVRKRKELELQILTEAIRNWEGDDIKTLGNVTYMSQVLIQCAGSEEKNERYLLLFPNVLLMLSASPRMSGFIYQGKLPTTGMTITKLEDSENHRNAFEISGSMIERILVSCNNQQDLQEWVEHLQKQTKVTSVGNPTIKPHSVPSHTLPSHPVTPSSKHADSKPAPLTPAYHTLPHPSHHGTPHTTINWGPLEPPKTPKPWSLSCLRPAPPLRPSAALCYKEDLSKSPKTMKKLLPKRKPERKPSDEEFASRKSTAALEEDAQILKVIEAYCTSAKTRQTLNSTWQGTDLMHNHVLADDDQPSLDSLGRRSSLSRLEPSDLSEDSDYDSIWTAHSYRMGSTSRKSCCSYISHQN
UniProt Q14457, whole entry: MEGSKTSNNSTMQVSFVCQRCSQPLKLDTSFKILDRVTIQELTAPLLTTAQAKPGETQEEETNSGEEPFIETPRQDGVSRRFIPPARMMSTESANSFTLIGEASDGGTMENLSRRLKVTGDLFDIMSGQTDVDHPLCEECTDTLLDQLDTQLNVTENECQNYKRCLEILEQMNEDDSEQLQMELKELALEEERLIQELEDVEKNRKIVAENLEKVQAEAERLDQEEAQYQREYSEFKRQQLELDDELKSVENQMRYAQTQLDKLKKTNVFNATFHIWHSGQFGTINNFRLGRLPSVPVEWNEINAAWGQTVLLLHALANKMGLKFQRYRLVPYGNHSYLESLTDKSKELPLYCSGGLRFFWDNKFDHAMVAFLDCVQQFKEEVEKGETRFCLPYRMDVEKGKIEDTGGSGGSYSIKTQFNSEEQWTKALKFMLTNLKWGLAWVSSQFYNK
UniProt Q14116, whole entry: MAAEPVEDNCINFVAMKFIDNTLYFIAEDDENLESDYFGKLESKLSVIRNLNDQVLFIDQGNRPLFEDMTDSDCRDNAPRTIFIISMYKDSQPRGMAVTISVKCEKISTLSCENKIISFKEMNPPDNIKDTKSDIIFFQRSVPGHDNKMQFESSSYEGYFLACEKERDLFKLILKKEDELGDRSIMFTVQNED
UniProt Q13243: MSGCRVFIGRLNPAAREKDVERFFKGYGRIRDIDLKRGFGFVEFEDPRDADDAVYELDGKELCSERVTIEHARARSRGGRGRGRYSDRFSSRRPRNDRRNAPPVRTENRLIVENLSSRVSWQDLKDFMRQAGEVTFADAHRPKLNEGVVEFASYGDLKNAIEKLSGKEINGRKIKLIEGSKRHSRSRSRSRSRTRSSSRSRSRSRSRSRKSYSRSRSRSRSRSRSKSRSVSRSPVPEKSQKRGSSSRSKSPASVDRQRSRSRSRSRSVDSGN
UniProt Q13352: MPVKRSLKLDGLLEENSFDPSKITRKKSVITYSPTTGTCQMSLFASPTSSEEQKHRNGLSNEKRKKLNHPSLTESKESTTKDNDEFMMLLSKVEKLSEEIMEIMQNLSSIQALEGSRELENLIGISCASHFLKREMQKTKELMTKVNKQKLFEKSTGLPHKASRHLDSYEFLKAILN
UniProt Q13185: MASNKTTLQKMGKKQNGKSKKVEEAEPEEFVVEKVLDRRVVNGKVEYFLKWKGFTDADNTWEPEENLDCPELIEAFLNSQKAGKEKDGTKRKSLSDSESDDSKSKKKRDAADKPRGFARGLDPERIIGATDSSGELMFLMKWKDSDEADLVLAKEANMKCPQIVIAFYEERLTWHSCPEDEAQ
UniProt Q15031: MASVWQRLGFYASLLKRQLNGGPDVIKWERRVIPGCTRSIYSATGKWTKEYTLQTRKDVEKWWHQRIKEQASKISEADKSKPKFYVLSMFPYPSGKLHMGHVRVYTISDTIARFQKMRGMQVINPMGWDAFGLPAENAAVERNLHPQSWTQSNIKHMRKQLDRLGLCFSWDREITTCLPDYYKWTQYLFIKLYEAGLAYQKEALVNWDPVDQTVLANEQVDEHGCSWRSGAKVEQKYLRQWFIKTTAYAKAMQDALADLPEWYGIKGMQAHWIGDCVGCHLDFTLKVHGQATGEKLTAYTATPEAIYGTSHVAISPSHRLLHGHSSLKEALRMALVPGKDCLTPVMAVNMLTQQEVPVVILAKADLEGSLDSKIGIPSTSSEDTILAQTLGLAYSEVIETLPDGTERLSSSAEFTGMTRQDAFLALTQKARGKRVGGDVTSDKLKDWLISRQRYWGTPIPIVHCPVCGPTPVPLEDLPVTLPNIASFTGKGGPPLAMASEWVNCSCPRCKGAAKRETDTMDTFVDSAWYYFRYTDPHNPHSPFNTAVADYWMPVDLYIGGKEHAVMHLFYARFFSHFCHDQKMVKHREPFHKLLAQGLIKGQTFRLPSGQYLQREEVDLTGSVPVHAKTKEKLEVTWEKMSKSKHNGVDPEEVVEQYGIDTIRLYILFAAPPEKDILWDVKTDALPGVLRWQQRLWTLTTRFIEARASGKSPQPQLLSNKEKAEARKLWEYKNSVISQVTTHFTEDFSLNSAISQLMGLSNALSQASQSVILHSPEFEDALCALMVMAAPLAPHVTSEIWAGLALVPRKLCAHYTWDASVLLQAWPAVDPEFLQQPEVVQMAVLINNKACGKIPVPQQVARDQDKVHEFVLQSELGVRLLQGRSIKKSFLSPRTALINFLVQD
UniProt Q14738, whole entry: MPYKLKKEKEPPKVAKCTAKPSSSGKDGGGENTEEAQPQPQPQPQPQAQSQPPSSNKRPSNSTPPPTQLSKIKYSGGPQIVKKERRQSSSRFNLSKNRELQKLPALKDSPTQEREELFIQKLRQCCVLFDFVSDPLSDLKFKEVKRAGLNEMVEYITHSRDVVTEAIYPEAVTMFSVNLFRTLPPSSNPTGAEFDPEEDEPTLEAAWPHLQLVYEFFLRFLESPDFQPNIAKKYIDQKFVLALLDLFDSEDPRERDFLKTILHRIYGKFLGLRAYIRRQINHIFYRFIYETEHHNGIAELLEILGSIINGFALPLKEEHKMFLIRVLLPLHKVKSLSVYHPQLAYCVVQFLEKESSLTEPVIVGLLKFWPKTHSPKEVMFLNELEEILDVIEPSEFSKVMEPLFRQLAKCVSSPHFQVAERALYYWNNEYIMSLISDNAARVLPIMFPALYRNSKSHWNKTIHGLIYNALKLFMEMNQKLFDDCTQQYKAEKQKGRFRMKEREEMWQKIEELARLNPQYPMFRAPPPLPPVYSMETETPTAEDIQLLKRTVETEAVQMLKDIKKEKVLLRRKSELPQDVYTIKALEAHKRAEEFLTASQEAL
UniProt Q13206, whole entry: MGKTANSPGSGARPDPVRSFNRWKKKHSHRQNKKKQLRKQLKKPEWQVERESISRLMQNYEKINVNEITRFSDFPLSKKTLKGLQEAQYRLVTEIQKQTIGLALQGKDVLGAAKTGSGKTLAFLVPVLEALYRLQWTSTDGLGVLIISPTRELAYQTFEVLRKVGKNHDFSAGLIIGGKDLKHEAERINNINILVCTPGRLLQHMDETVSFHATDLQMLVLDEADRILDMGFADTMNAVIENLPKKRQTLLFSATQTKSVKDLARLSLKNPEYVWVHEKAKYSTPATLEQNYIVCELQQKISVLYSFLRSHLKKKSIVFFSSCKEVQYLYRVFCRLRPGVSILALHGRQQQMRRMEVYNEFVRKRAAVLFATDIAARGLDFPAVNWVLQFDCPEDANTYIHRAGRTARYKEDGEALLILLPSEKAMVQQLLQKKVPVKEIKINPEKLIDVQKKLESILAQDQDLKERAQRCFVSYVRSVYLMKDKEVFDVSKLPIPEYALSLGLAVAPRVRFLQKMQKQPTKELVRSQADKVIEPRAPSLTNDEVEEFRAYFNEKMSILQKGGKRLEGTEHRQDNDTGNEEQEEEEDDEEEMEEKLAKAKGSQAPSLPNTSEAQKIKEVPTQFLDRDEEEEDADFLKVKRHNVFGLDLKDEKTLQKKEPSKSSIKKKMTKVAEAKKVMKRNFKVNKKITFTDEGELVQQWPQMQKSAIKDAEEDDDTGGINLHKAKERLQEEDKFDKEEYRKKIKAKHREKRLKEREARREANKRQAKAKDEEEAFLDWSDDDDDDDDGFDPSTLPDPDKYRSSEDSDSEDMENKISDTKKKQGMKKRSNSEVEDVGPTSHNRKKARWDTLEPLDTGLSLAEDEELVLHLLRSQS

This is one part of the list. Most values lie at the level of the controls, where differences are scatter.

Compound in this assay: CN[C@@H]1C[C@H]2O[C@@](C)([C@@H]1OC)n1c3ccccc3c3c4c(c5c6ccccc6n2c5c31)C(=O)NC4 [staurosporine]
Briefly: log2 fold change of tryptic peptide abundance, ligand vs vehicle (limited proteolysis) (log2 ratio); higher = more trypsin-susceptible (destabilized). The note with it: ligand concentration: 20 uM; sample: K562 cleared lysate; digestion: 4 min, 22 C (HT-PELSA RT4min, Orbitrap Astral).

For the target “PLD1 (peptide sequence: IAADMSNIIENLDTR, peptide start residue: 17) (UniProt Q13393)”, the log2 fold change is -0.442.

With “EIF3I (peptide sequence: MKPILLQGHER, peptide start residue: 1) (UniProt Q13347)”, the log2 fold change is 0.201.

As to “COG2 (peptide sequence: ALNQLSVPLGQLR, peptide start residue: 84) (UniProt Q14746)”, the log2 fold change was -0.772.

Turning to “KEAP1 (peptide sequence: CKDYLVK, peptide start residue: 297) (UniProt Q14145)”, the log2 fold change is 0.245.

Regarding “CTBP1 (peptide sequence: IRGAALDVHESEPFSFSQGPLK, peptide start residue: 284) (UniProt Q13363)”, the log2 fold change is -0.166.

With “KPNB1 (peptide sequence: LAATNALLNSLEFTK, peptide start residue: 192) (UniProt Q14974)”, the log2 fold change is 0.695.

On to “IQGAP2 (peptide sequence: RQNIAYEYLCHLEEAKR, peptide start residue: 33) (UniProt Q13576)”, for which the log2 fold change was determined as 0.57.

With “SMAD4 (peptide sequence: CDSVCVNPYHYER, peptide start residue: 123) (UniProt Q13485)”, the log2 fold change is -0.0691.

“GTF2H2 (peptide sequence: VFEHHGQVR, peptide start residue: 46) (UniProt Q13888)”: the log2 fold change worked out at 0.217.

Take “ZMYM3 (peptide sequence: REDEAPILEQR, peptide start residue: 1276) (UniProt Q14202)”: the log2 fold change was 0.488.

On to “ATXN7L3 (peptide sequence: IANSNNMNK, peptide start residue: 120) (UniProt Q14CW9)”, for which the log2 fold change was found to be 0.482.

“ARHGAP19 (peptide sequence: MFLGELPEPLLTHK, peptide start residue: 182) (UniProt Q14CB8)”: the log2 fold change came to 0.32.

“NCAPD2 (peptide sequence: FPNLVDPWTPHLYAR, peptide start residue: 1086) (UniProt Q15021)”: the log2 fold change was -0.382.

Regarding “CTTN (peptide sequence: FGVQMDR, peptide start residue: 125) (UniProt Q14247)”, the log2 fold change was -0.381.

In the case of “RAPGEF1 (peptide sequence: VLEAILPLVQNDPR, peptide start residue: 131) (UniProt Q13905)”, the log2 fold change worked out at 0.495.

Consider “LRRC14 (peptide sequence: GLSVIIPHVAR, peptide start residue: 236) (UniProt Q15048)”, for which the log2 fold change amounted to 0.401.

In the case of “UniProt Q147X3 (peptide sequence: YYLNGVDALR, peptide start residue: 347)”, the log2 fold change was determined as 0.364.

Take “USP10 (peptide sequence: IEFGVDEVIEPSDTLPR, peptide start residue: 57) (UniProt Q14694)”: the log2 fold change was -0.19.

For “UniProt Q15018 (peptide sequence: QMPSESLDPAFSPR, peptide start residue: 269)”, the log2 fold change is -0.249.

As to “DYNC1I2 (peptide sequence: EAVAPVQEESDLEKK, peptide start residue: 42) (UniProt Q13409)”, the log2 fold change was -0.0904.

On to “SNTB2 (peptide sequence: DAWASPCHSYPLVATR, peptide start residue: 368) (UniProt Q13425)”, for which the log2 fold change was found to be 0.522.

Consider “NAB1 (peptide sequence: DYPHSAFTLEK, peptide start residue: 466) (UniProt Q13506)”, for which the log2 fold change was -0.291.

For “UBE2V1 (peptide sequence: WQNSYSIK, peptide start residue: 109) (UniProt Q13404)”, the log2 fold change worked out at 0.451.

With “IDI1 (peptide sequence: SYCYVSKEELK, peptide start residue: 170) (UniProt Q13907)”, the log2 fold change is -0.262.

Turning to “MRPL49 (peptide sequence: IKGYFDQELK, peptide start residue: 149) (UniProt Q13405)”, the log2 fold change worked out at 0.489.

Take “ESPL1 (peptide sequence: ALCLLELTLEHCRR, peptide start residue: 248) (UniProt Q14674)”: the log2 fold change stood at 0.374.

On to “SNW1 (peptide sequence: GYTIPLDKR, peptide start residue: 259) (UniProt Q13573)”, for which the log2 fold change was 0.216.

As to “FAT1 (peptide sequence: ELDHEKR, peptide start residue: 2874) (UniProt Q14517)”, the log2 fold change turned out to be 0.000925.

On to “TFDP2 (peptide sequence: NVGLTSTNAEVR, peptide start residue: 5) (UniProt Q14188)”, for which the log2 fold change is -0.423.

Consider “HERC3 (peptide sequence: GYWAAHSGQLSAR, peptide start residue: 343) (UniProt Q15034)”, for which the log2 fold change stood at 0.147.

Turning to “EIF4EBP1 (peptide sequence: FLMECRNSPVTK, peptide start residue: 58) (UniProt Q13541)”, the log2 fold change worked out at 0.652.

As to “ARHGEF7 (peptide sequence: ASEKPVSPK, peptide start residue: 243) (UniProt Q14155)”, the log2 fold change came to 0.292.

As to “MTA1 (peptide sequence: SNMSPHGLPAR, peptide start residue: 446) (UniProt Q13330)”, the log2 fold change came out at 0.667.

Regarding “UniProt Q13724 (peptide sequence: GFLWDEGFHQLVVQR, peptide start residue: 447)”, the log2 fold change was 0.199.

With “BECN1 (peptide sequence: LIQELEDVEK, peptide start residue: 194) (UniProt Q14457)”, the log2 fold change is -0.371.

On to “IL18 (peptide sequence: TIFIISMYK, peptide start residue: 81) (UniProt Q14116)”, for which the log2 fold change came out at 0.112.

As to “UniProt Q14586 (peptide sequence: HGSCDLENLHLR, peptide start residue: 103)”, the log2 fold change was determined as 0.328.

With “PSMD2 (peptide sequence: FLRPHYGK, peptide start residue: 98) (UniProt Q13200)”, the log2 fold change turned out to be 0.326.

As for “UniProt Q13243 (peptide sequence: GFGFVEFEDPR, peptide start residue: 38)”, the log2 fold change was -0.106.

For the target “UniProt Q14562 (peptide sequence: GIGMMPNDIPEWKK, peptide start residue: 527)”, the log2 fold change is -0.152.

Consider “BYSL (peptide sequence: LQPHPQLSPEIRR, peptide start residue: 407) (UniProt Q13895)”, for which the log2 fold change was -0.661.

In the case of “ITGB3BP (peptide sequence: SLKLDGLLEENSFDPSKITR, peptide start residue: 6) (UniProt Q13352)”, the log2 fold change was -0.44.

“PRDX4 (peptide sequence: TREEECHFYAGGQVYPGEASR, peptide start residue: 46) (UniProt Q13162)”: the log2 fold change is -0.174.

“PICALM (peptide sequence: NDVNWSQPGEK, peptide start residue: 560) (UniProt Q13492)”: the log2 fold change is -0.115.

Regarding “ILK (peptide sequence: ICMNEDPAK, peptide start residue: 427) (UniProt Q13418)”, the log2 fold change was -0.322.

Turning to “CBX3 (peptide sequence: SLSDSESDDSKSK, peptide start residue: 93) (UniProt Q13185)”, the log2 fold change was -0.254.

Take “LARS2 (peptide sequence: TALINFLVQD, peptide start residue: 894) (UniProt Q15031)”: the log2 fold change is -0.169.

On to “PPP2R5D (peptide sequence: AGLNEMVEYITHSR, peptide start residue: 147) (UniProt Q14738)”, for which the log2 fold change amounted to 0.443.

Regarding “DRAP1 (peptide sequence: ALELFLESLLKK, peptide start residue: 41) (UniProt Q14919)”, the log2 fold change was 0.168.

With “UniProt Q13258 (peptide sequence: NLYAMHRR, peptide start residue: 224)”, the log2 fold change worked out at 0.109.

Consider “EIF4EBP2 (peptide sequence: KHAVGDDAQFEMDI, peptide start residue: 107) (UniProt Q13542)”, for which the log2 fold change was -0.381.

As for “DDX10 (peptide sequence: SIVFFSSCK, peptide start residue: 316) (UniProt Q13206)”, the log2 fold change was -0.152.

As to “GAMT (peptide sequence: WETPYMHALAAAASSK, peptide start residue: 45) (UniProt Q14353)”, the log2 fold change is 0.811.

Regarding “MTMR1 (peptide sequence: NVERDPHFILDVPLGVISR, peptide start residue: 138) (UniProt Q13613)”, the log2 fold change is -0.335.

As for “IKZF1 (peptide sequence: NGLSLKEEHR, peptide start residue: 424) (UniProt Q13422)”, the log2 fold change was 0.339.

As for “PPP2R5C (peptide sequence: LFDDCTQQFK, peptide start residue: 404) (UniProt Q13362)”, the log2 fold change turned out to be 0.133.

As for “KLF1 (peptide sequence: APDAFVGPALAPAPAPEPK, peptide start residue: 144) (UniProt Q13351)”, the log2 fold change is 0.59.

In the case of “NCOA4 (peptide sequence: GVEIENLGNLK, peptide start residue: 357) (UniProt Q13772)”, the log2 fold change is -0.186.

For the target “SAFB2 (peptide sequence: VTPDIEESLLEPENEK, peptide start residue: 200) (UniProt Q14151)”, the log2 fold change came out at 0.197.

For the target “RAB31 (peptide sequence: VEKPTMQASR, peptide start residue: 182) (UniProt Q13636)”, the log2 fold change was 0.139.

As for “PRPSAP1 (peptide sequence: EIQGFFSFPVDNLR, peptide start residue: 139) (UniProt Q14558)”, the log2 fold change is 0.548.
